# Measurements taken from the RNAGym collection of RNA variant scans (doi:10.1126/science.aae0568).
# Variants at the floor of the assay are shown more often than the library holds them.
# B1: tRNA (parent)
# chain: GUUCCGUUGGCGUAAUGGUAACGCGUCUCCCUCCUAAGGAGAAGACUGCGGGUUCGAGUCCCGUACGGAACG
# Variants of: B1
# Experiment: yeast fitness relative to wild type (ratio to wild type); higher = fitter; tRNA-Arg(CCU), competitive growth, 37 C, YPD
# Method in brief: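 Start and end populations of a pooled competition were compared by 100-nucleotide paired-end sequencing of gene amplicons. The Saccharomyces cerevisiae strains carried tRNA-Arg(CCU) gene variants at the native genomic locus, synthesised with a 3% per-site mutation rate at 69 sites, and competed in YPD at 37°C for 24 hours in six parallel replicates. Darwinian fitness relative to wild type was based on the change in genotype frequencies. Genotypes required ≥ 100 starting reads, and estimates < 0.5 were set to 0.5.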
row,Variant,yeast fitness
1,C31U A42C,1.17
2,C31U A43C A69C,0.902
3,C31U A45U C60U,≤ 0.5
4,C31U C33U A37G A70U,≤ 0.5
5,C31U C33U A42C,0.562
6,C31U C34A C49U U54C A65C,≤ 0.5
7,C31U C34A U47A,≤ 0.5
8,C31U C34U G58C C60U C62U G63C,≤ 0.5
9,C31U C55A,0.749
10,C31U C55G A65G,≤ 0.5
11,C31U C55U C61U A70G,≤ 0.5
12,C31U G38C G51C C55U,≤ 0.5
13,C31U G44A A45U,0.893
14,C31U G50A A70U,0.677
15,C31U G52A G68C,≤ 0.5
16,C31U G56A G63C,≤ 0.5
17,C31U U32C G67C,≤ 0.5
18,U32A A42G C46U,≤ 0.5
19,U32A A57C G63C,≤ 0.5
20,U32A A70C,0.741
21,U32A C33G A43G,≤ 0.5
22,U32A C33G C60A,≤ 0.5
23,U32A C33G C61U C62U,≤ 0.5
24,U32A C33U A42U C60A,0.595

row,Variant,yeast fitness
1,U32A C60G G68U,≤ 0.5
2,U32A C61G C66G,0.576
3,U32A G38C U47A,≤ 0.5
4,U32A G41C C49G G52A C55U,≤ 0.5
5,U32A U35G G67A,≤ 0.5
6,U32C A37G C55A A65U G68C,0.575
7,U32C A37U A40C C61G,≤ 0.5
8,U32C A43G C55U C66A,≤ 0.5
9,U32C C33A A36G,≤ 0.5
10,U32C C46G G52C G68C,≤ 0.5
11,U32C C46U,0.862
12,U32C C49A,0.692
13,U32C G52A A65U,≤ 0.5
14,U32C G68C A70U,≤ 0.5
15,U32G A40C,0.692
16,U32G C33A C62G C66U,≤ 0.5
17,U32G C33G C55U C66U,≤ 0.5
18,U32G C33G G50A U53G A69G A70C,≤ 0.5
19,U32G G39C A43G G52C,0.571
20,C33A A37G C62A,≤ 0.5
21,C33A A37U C55A,≤ 0.5
22,C33A A37U C62A,0.503
23,C33A C34G G50A A70U,≤ 0.5
24,C33A C55G,0.564

row,Variant,yeast fitness
1,C33A C60A U64C,≤ 0.5
2,C33A G39C C49U U54A,≤ 0.5
3,C33A G39C C49U U54A A70U,≤ 0.5
4,C33A G39C C66U,≤ 0.5
5,C33G A40U G56A,≤ 0.5
6,C33G A42C A65C,≤ 0.5
7,C33G A42G G52A C62A A70U,0.589
8,C33G A45G C55G G56C,≤ 0.5
9,C33G A57U G68A A69U,≤ 0.5
10,C33G C34G,≤ 0.5
11,C33G C46A C61A,≤ 0.5
12,C33G C55G,≤ 0.5
13,C33G C60A C66G,≤ 0.5
14,C33G G39A C66G,≤ 0.5
15,C33G G41C A43C,≤ 0.5
16,C33G G44A G56A,≤ 0.5
17,C33G G52A G56U,≤ 0.5
18,C33G U35C,0.603
19,C33G U47A,0.579
20,C33U A36C A40G,≤ 0.5
21,C33U A36U G41C,≤ 0.5
22,C33U A36U G41C A65G,≤ 0.5
23,C33U A37G A42C A65C A69C,≤ 0.5
24,C33U A40G G51C A57U,≤ 0.5

row,Variant,yeast fitness
1,C33U A40U G56C,≤ 0.5
2,C33U A42C C61A G68U,≤ 0.5
3,C33U A42C C61U,≤ 0.5
4,C33U A42C G68U,0.538
5,C33U A43U C49G G50C,≤ 0.5
6,C33U A43U C49G G50C A65C,≤ 0.5
7,C33U A57G U59A,≤ 0.5
8,C33U C34A G50A C62U,≤ 0.5
9,C33U C34U U53A,≤ 0.5
10,C33U C49A A65C,≤ 0.5
11,C33U C49G C60G C62G G63A,≤ 0.5
12,C33U C55G G67A A70G,≤ 0.5
13,C33U C61U C66G,0.543
14,C33U G39C A45C,≤ 0.5
15,C33U U47C G48A G58A C66U,≤ 0.5
16,C34A A40G,0.609
17,C34A A42U A70U,≤ 0.5
18,C34A A42U G48C C61G,≤ 0.5
19,C34A A43C G50A A65C,≤ 0.5
20,C34A A57G,0.715
21,C34A A57U G67C,0.605
22,C34A C46U,0.615
23,C34A C46U A65C,0.569
24,C34A G51A G63A,≤ 0.5

row,Variant,yeast fitness
1,C34A G52A U54A A70C,≤ 0.5
2,C34A G52C C60G G68C,≤ 0.5
3,C34A U47C G51A A65G,≤ 0.5
4,C34A U53A,0.541
5,C34G A36U,≤ 0.5
6,C34G A37G G51C,≤ 0.5
7,C34G A40U U47A G67C,≤ 0.5
8,C34G A57G G63C,≤ 0.5
9,C34G C46A U64A,≤ 0.5
10,C34G C49U U54C,≤ 0.5
11,C34G C66A,0.543
12,C34G G39C U53G G56A A65U,≤ 0.5
13,C34G G48A A57G,0.631
14,C34G G48C,0.519
15,C34G G50A C62U C66A,≤ 0.5
16,C34G G52A,0.562
17,C34G G52C A70U,0.542
18,C34G U53G,≤ 0.5
19,C34G U54A A65G,≤ 0.5
20,C34G U59C,0.602
21,C34U A36U U53A,≤ 0.5
22,C34U A37C A65U,≤ 0.5
23,C34U A40C G51A C61G,≤ 0.5
24,C34U A40C G63A G67C,≤ 0.5

row,Variant,yeast fitness
1,C34U A42C C66U,≤ 0.5
2,C34U A43G U54C C66U,≤ 0.5
3,C34U A70G,0.803
4,C34U C46A C55U,≤ 0.5
5,C34U C46U A69G A70U,≤ 0.5
6,C34U C49U U53A,≤ 0.5
7,C34U C62G C66G G67U,≤ 0.5
8,C34U G38C C55A,≤ 0.5
9,C34U G44C U47G A65G,≤ 0.5
10,C34U G50C C61U C62G,≤ 0.5
11,C34U G52C A57U,≤ 0.5
12,U35A A37G A43U A45C,≤ 0.5
13,U35A A40U A42U,≤ 0.5
14,U35A A40U A57U,0.625
15,U35A A40U C46G U53A,≤ 0.5
16,U35A A42C C46U C66U G67C,≤ 0.5
17,U35A C49G C66G,≤ 0.5
18,U35A G39A U53A,≤ 0.5
19,U35A G44A,0.715
20,U35C A37C G68C A70C,0.913
21,U35C A37U A43C C46U C49U,≤ 0.5
22,U35C A42C G68U,≤ 0.5
23,U35C A42U C62U A70C,≤ 0.5
24,U35C C55G C66U A70C,≤ 0.5

row,Variant,yeast fitness
1,U35C C55U,≤ 0.5
2,U35C C66U,0.781
3,U35C G38A A42U G58C,≤ 0.5
4,U35C G48C U53A C61U,≤ 0.5
5,U35G A40G U54G,≤ 0.5
6,U35G A40U C61A,≤ 0.5
7,U35G A43G,0.725
8,U35G G50A C55U A69C,≤ 0.5
9,A36C A37C G68U,≤ 0.5
10,A36C A37C U53G A69C,≤ 0.5
11,A36C A37U G50C C66U,0.56
12,A36C A40U A57G,≤ 0.5
13,A36C A57C,≤ 0.5
14,A36C C49U C55U C60U,≤ 0.5
15,A36C C61U,0.581
16,A36C G51A,≤ 0.5
17,A36C G51A G67A,≤ 0.5
18,A36C U59A A69G,≤ 0.5
19,A36G A37G A65U,≤ 0.5
20,A36G A40C G63C,≤ 0.5
21,A36G A40G C55U A69C,≤ 0.5
22,A36G A42G C49G,≤ 0.5
23,A36G A43C A65U,≤ 0.5
